# Assay results as given in PubChem BioAssay AID624297 (National Center for Advancing Translational Sciences (NCATS), 2012).
# Out of some 340,000 compounds screened, about 6,200 (1.8%) were called active. Entries that show only a call come without a potency. This list was built around the results that the source calls inconclusive (neither active nor inactive); the mix of calls is not that of the screen. Calls come from the whole dose curve; as a rule, active = well fitted activation curve with a large enough effect; inconclusive = small, poorly fitted or top-dose-only effect; inactive = no such curve, though single readings can be large or run the other way. Where the call is inconclusive, the potency comes from a doubtful curve fit.
# Assay: A quantitative high throughput screen for small molecules that induce DNA re-replication in SW480 colon adenocarcinoma cells. Note: nearly all actives have a fitted effect of over 55% in size.
# Conditions: Hoechst DNA content imaging, 48 h; series mostly up to 46.1 µM
# Outline: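 Cells (250 per well) received 23 nL compound or DMSO by pin tool and were kept 48 hr at 37 C, 5% CO2. Nuclei were then stained with Hoechst for 40 min and scanned for DNA content.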
# Potency is the fitted concentration of half-maximal effect.
row,SMILES,Potency
1,CCCCc1cc(=O)oc2cc(C)cc(OC(C)C(=O)NCc3cccnc3)c12 (stereo not given),inactive
2,CCC1ON(c2ccccc2)C2c3nc4ccccc4n3CC12 (stereo not given),"inconclusive: 2.59 µM [activator, partial curve, poor fit]"
3,COc1ccc(CN(C)C(=O)CC(c2ccccc2)c2ccccc2)cc1,"inconclusive: 4.47 µM [activator, single point]"
4,CCOc1cc2[nH]c(=S)n(Cc3ccc(C(=O)NCCN(CC)CC)cc3)c(=O)c2cc1OCC,"inconclusive: 29.1 µM [activator, single point]"
5,COC(=O)C=CC(=NNc1ccccc1)c1ccccc1,"inconclusive: 18.4 µM [activator, single point]"
6,C=C(C)C(O)CC/C(C)=C/Cc1c(O)ccc(C(=O)/C=C/c2ccc(O)cc2)c1O (stereo not given),"inconclusive: 0.092 µM [activator, full curve, poor fit]"
7,O=C(NC1CC1)c1scc2c1OCCO2,inactive
8,O=C(CSC1=NS(=O)(=O)c2cc(Cl)ccc2N1)Nc1ccccc1C(F)(F)F,"inconclusive: 9.2 µM [activator, partial curve, poor fit]"
9,c1ccc(C(Cc2nc(-c3ccncc3)no2)c2ccccc2)cc1,inactive
10,Cc1ccc(Nc2nc(-c3cccnc3)nc3ccccc23)cc1,active: 9.2 µM
11,CC(C)[C@H]1COCCS(=O)(=O)N1Cc1ccccc1F,inactive
12,O=C(Nc1ccc(NC(=O)c2ccc(Cl)c(S(=O)(=O)N3CCOCC3)c2)cc1)c1ccccc1,inactive
13,CCN(CC)c1ccc(C2C(C(=O)OC(C)C)C(=O)CC(C)(O)C2C(=O)OC(C)C)cc1 (stereo not given),inactive
14,COc1cc(-c2ccc3oc(-c4ccsc4)c(C#CC4(O)CCCCC4)c3c2)cc(OC)c1OC,"inconclusive: 11.6 µM [activator, single point]"
15,CCCN1CCC(=O)N([C@H](CSc2ccccc2)Cc2ccccc2)CC1,inactive
16,CN1C(CC(=O)Nc2ccc(Cl)cc2Cl)c2ccccc2CC1(C)C (stereo not given),"inconclusive: 6.51 µM [activator, single point]"
17,COc1cc2cc(CN(CCc3ccccc3C)C(=S)NCCCN(C)C)c(=O)[nH]c2cc1OC,"inconclusive: 29.1 µM [activator, single point]"
18,COc1cc(C(=O)Nc2ccc(OCC(=O)N3CCOCC3)cc2C)cc(OC)c1OC,inactive
19,COc1ccc(CCOC2OC(CO)C(OC(=O)/C=C/c3ccc(O)c(OC)c3)C(O[C@H]3O[C@@H](C)[C@H](O)[C@@H](O)[C@H]3O)C2O)cc1O (stereo not given in full),inactive
20,CCCCCCN(C(=O)CCCN1C(=O)NC(c2ccc(-c3ccccc3)cc2)C(C(=O)OCc2ccccc2)=C1C)C(C)C(=O)NCCCC (stereo not given),inactive

# Reformatted as tab-separated lines: entries from further up.
row	SMILES	Potency
16	CN1C(CC(=O)Nc2ccc(Cl)cc2Cl)c2ccccc2CC1(C)C (stereo not given)	inconclusive: 6.51 µM [activator, single point]
17	COc1cc2cc(CN(CCc3ccccc3C)C(=S)NCCCN(C)C)c(=O)[nH]c2cc1OC	inconclusive: 29.1 µM [activator, single point]
